Test results published in patent US20190202877A1, “DERMASEPTIN-TYPE AND PISCIDIN-TYPE ANTIMICROBIAL PEPTIDES” (THE REGENTS OF THE UNIVERSITY OF COLORADO, a body corporate, priority 2014, published 2019).

Tests used:
Conditions in all cases: ratio of HC50 over geometric mean MIC
S. aureus = assay: MIC geometric mean, 20 isolates of S. aureus; type: cell-based, Staphylococcus aureus
Acinetobacter baumannii = type: cell-based
Pseudomonas aeruginosa = type: cell-based

SMILES	Eukaryotic/Prokaryotic Cell Selectivity Factor hRBC/S. aureus (S. aureus)	Eukaryotic/Prokaryotic Cell Selectivity Factor hRBC/A. baumannii (Acinetobacter baumannii)	Eukaryotic/Prokaryotic Cell Selectivity Factor hRBC/P. aeruginosa (Pseudomonas aeruginosa)
CSCC[C@@H](NC(=O)[C@@H](Cc1c[nH]c2ccccc12)NC(=O)[C@@H](CC(C)C)NC(=O)[C@@H](C)N)C(=O)N[C@@H](C(=O)N[C@H](CC(C)C)C(=O)N[C@H](CC(C)C)C(=O)N[C@H](CCCCN)C(=O)N[C@H](CCCCN)C(=O)N[C@@H](C(=O)N[C@H](CC(C)C)C(=O)N[C@H](CCCCN)C(=O)N[C@H](C)C(=O)N[C@H](C)C(=O)N[C@H](C)C(=O)N[C@H](CCCCN)C(=O)N[C@H](C)C(=O)N[C@H](CC(C)C)C(=O)N[C@H](CC(N)=O)C(=O)N[C@H](C)C(=O)N[C@@H](C(=O)N[C@H](CC(C)C)C(=O)N[C@@H](C(=O)NCC(=O)N[C@H](C)C(=O)N[C@H](CC(N)=O)C(=O)N[C@H](C)C(N)=O)C(C)C)C(C)C)C(C)C)[C@H](C)O [D-Dermaseptin S4, reference compound]	0.1	0.3	0.05
CC[C@@H](C)[C@@H](NC(=O)[C@@H](Cc1c[nH]cn1)NC(=O)[C@@H](Cc1c[nH]cn1)NC(=O)[C@@H](Cc1ccccc1)NC(=O)[C@H](N)Cc1ccccc1)C(=O)N[C@H](Cc1ccccc1)C(=O)N[C@H](CCCNC(=N)N)C(=O)NCC(=O)N[C@H](CCCCN)C(=O)N[C@@H](C(=O)N[C@H](Cc1c[nH]cn1)C(=O)N[C@@H](C(=O)NCC(=O)N[C@H](CCCCN)C(=O)N[C@@H](C(=O)N[C@@H](C(=O)N[C@H](Cc1c[nH]cn1)C(=O)N[C@H](CCCNC(=N)N)C(=O)N[C@H](CC(C)C)C(=O)N[C@@H](C(=O)N[C@@H](C(=O)NCC(N)=O)[C@H](C)O)C(C)C)[C@H](C)CC)[C@H](C)O)C(C)C)C(C)C [D-Piscidin 1 I9K]	0.5	32.6	32
CC[C@@H](C)[C@@H](NC(=O)CNC(=O)[C@@H](CCCNC(=N)N)NC(=O)[C@@H](Cc1ccccc1)NC(=O)[C@H](NC(=O)[C@@H](Cc1c[nH]cn1)NC(=O)[C@@H](Cc1c[nH]cn1)NC(=O)[C@@H](Cc1ccccc1)NC(=O)[C@H](N)Cc1ccccc1)[C@H](C)CC)C(=O)N[C@@H](C(=O)N[C@H](Cc1c[nH]cn1)C(=O)N[C@H](CCCCN)C(=O)NCC(=O)N[C@H](CCCCN)C(=O)N[C@@H](C(=O)N[C@@H](C(=O)N[C@H](Cc1c[nH]cn1)C(=O)N[C@H](CCCNC(=N)N)C(=O)N[C@H](CC(C)C)C(=O)N[C@@H](C(=O)N[C@@H](C(=O)NCC(N)=O)[C@H](C)O)C(C)C)[C@H](C)CC)[C@H](C)O)C(C)C [D-Piscidin 1 V12K]	0.2	12.5	2.1
CC[C@@H](C)[C@@H](NC(=O)CNC(=O)[C@@H](CCCNC(=N)N)NC(=O)[C@@H](Cc1ccccc1)NC(=O)[C@H](NC(=O)[C@@H](Cc1c[nH]cn1)NC(=O)[C@@H](Cc1c[nH]cn1)NC(=O)[C@@H](Cc1ccccc1)NC(=O)[C@H](N)Cc1ccccc1)[C@H](C)CC)C(=O)N[C@@H](C(=O)N[C@H](Cc1c[nH]cn1)C(=O)N[C@@H](C(=O)NCC(=O)N[C@H](CCCCN)C(=O)N[C@@H](C(=O)N[C@@H](C(=O)N[C@H](Cc1c[nH]cn1)C(=O)N[C@H](CCCNC(=N)N)C(=O)N[C@H](CC(C)C)C(=O)N[C@@H](C(=O)N[C@@H](C(=O)NCC(N)=O)[C@H](C)O)C(C)C)[C@H](C)CC)[C@H](C)O)C(C)C)C(C)C [D-Piscidin 1, reference compound]	0.6	0.6	0.09
